Source: US6858585B1, “Cyclic depsipeptides and drugs containing the same as the active ingredient” (Nisshin Seifun Group Inc., priority 1996, dated 2005)
Some of these results come from one statement about several compounds together.

What was measured:
[1] = tested on: apolipoprotein B production in Hep G2 cells; assay: Production of apolipoprotein B in Hep G2 cells, enzyme immunoassay of cultured broth (Example 2); assay type: cell-based, human
Protocol: (§1) First, 1 ml portions of Hep G2 cells at 1×10^5 cells/ml suspended in D-MEM medium containing 10% fetal bovine serum were poured into a 24-well tissue culture plate and cultivation was carried out at 37° C. under atmosphere of a mixed gas composed of 5% carbon dioxide and 95% air for 3 days. Thereafter, the medium was removed by means of a pipette, 1 ml of fresh D-MEM medium was added and cultivation was again carried out at 37° C. under atmosphere of a mixed gas composed of 5% carbon dioxide and 95% air for one day. Then, the medium was removed by means of a pipette and washed three times with 0.5 ml of fresh D-MEM medium. […]
The sheep antihuman apolipoprotein B IgG fraction (manufactured by Bindingsite Co., Ltd., U.K.) was dissolved in a 0.05M aqueous sodium hydrogencarbonate solution (pH 9.5) at a concentration of 10 μg/ml. […] The reaction was discontinued by the addition of 100 μl of 2N sulfuric acid, and absorbance at 490 nm was measured using absorbance at 650 nm as a control. The absorbance obtained was defined as that of apolipoprotein B. An absolute amount of apolipoprotein B was determined upon a calibration curve drawn up when a commercially available low density lipoprotein (manufactured by Sigma, U.S.A.) was used as a standard. […]

[2] = tested on: apolipoprotein A1 production in Hep G2 cells; assay: Production of apolipoprotein A1 in Hep G2 cells, enzyme immunoassay of cultured broth (Example 2); assay type: cell-based, human
Protocol: as §1, with “medium. 1 ml of fresh D-MEM medium was added and further 10 μl of a solution of the cyclic depsipeptide of the invention or Compound 1, 4, 5, 6, 7 or 8 dissolved in methanol at the concentration as shown in Table 3 was added.” for “medium.”
It was again washed three times with 300 μl of PBS, 100 μl of the above Cultured Broths 7-10 was added and the mixture was allowed to stand at room temperature for 2 hours. […] The reaction was discontinued by the addition of 100 μl of 2N sulfuric acid, and absorbance at 490 nm was measured using absorbance at 650 nm as a control. An absolute amount of apolipoprotein A1 was determined upon a calibration curve drawn up when a commercially available apolipoprotein Al (manufactured by Sigma, U.S.A.) was used as a standard. […]

Substance: Compound 7 (QLLVDLI; cyclic depsipeptide)
- inhibitory activity on the production of apolipoprotein B (in words) [1]: potent inhibitory activity on the production of apolipoprotein B
- promotion of the production of apolipoprotein A1 (in words) [2]: highly promote the production of apolipoprotein A1
